Hit rate of the full screen: of about 390,000 compounds, about 910 (0.23%) were called active. Inconclusive results, whose numbers are uncertain, are shown with a selection of clear calls. The call rests on the fitted dose curve; in most records, active means well fitted inhibition curve with a large enough effect; inconclusive means small, poorly fitted or top-dose-only effect; inactive means no such curve, though single readings can be large or run the other way. A potency beside an inconclusive call is a rough fit, not a confirmed value.
target: Ubiquitin carboxyl-terminal hydrolase 1 (Homo sapiens) (UniProt O94782); experiment: Inhibitors of USP1/UAF1: Primary Screen; details: recombinant USP1/UAF1, Ub-Rhodamine cleavage fluorescence; series mostly up to 57.1 µM; further: nearly all actives have a fitted effect of over 60% in size
Procedure, shortened: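 USP1/UAF1 complex (1 nM) preincubated 15 min at room temperature with compound, then Ub-Rho substrate (150 nM final) added. Kinetic fluorescence at 480/540 nm over 6 reads at 60 s intervals; 50 mM HEPES pH 7.8, 0.5 mM EDTA, 0.1 mg/ml BSA, 1 mM TCEP, 0.01% Tween-20.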
Potency means the concentration at half of the fitted maximal effect.

Sequences of proteins named here, by UniProt entry; tags and fusion partners are left off. A change or cut given only in a name is not applied to a line headed by its entry.
UniProt O94782: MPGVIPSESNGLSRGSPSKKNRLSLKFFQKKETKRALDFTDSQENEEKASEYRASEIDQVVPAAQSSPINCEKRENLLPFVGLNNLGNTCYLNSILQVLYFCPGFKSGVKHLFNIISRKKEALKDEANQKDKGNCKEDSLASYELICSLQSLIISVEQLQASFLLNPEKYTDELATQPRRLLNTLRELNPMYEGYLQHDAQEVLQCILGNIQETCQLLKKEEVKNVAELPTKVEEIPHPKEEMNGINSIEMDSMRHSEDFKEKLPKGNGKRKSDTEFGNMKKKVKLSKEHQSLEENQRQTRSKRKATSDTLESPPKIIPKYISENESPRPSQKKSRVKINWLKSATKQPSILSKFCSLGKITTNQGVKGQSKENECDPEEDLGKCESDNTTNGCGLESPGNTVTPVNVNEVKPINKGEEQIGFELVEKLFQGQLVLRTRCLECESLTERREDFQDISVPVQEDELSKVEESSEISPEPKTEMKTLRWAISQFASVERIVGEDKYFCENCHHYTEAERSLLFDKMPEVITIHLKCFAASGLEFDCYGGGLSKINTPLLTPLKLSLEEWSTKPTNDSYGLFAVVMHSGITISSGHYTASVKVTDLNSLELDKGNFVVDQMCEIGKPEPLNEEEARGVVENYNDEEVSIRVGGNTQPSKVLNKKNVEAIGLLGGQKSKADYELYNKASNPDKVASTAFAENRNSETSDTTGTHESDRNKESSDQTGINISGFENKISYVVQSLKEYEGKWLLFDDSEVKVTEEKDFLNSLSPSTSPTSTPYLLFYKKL

| Structure (SMILES) | Potency |
| --- | --- |
| COc1ccc(NC(=O)C(C)N2CCN(C)CC2)cc1 (stereo unspecified) | inconclusive: 11.2 µM [inhibitor, full curve, poor fit] |
| Cc1cc(C)nc(/N=C(\NC(=O)C(C)(C)C)Nc2ccccc2)n1 | inconclusive: 5.62 µM [inhibitor, partial curve, poor fit] |
| COc1ccc(C(=O)CSc2nc3nn(-c4ccccc4)c(=O)c-3c3n2CCCCC3)c(OC)c1 | inconclusive: 50.1 µM [inhibitor, partial curve, poor fit] |
| CCCCN1C[C@H](C)[C@@H](CC(=O)NCc2ccccc2)C1=O | inconclusive: 0.398 µM [inhibitor, full curve] |
| Cc1ccc(Nc2nc3c(S(=O)(=O)c4ccccc4)nnn3c3ccsc23)c(C)c1 | inconclusive: 12.6 µM [inhibitor, partial curve, poor fit] |
| O=C(O)c1cc(N/N=C/c2ccc(-c3ccccc3)cc2)ccc1Cl | inactive |
| CCCCNC(=O)c1ccc2c(c1)NC(=O)C(CS(=O)(=O)Cc1cccc(C)c1)N2 (stereo unspecified) | inconclusive: 12.6 µM [inhibitor, partial curve] |
| CCOC(=O)C1=C(C)Nc2ccccc2N=C1NC(=O)c1ccc(Cl)c(S(=O)(=O)N2CCCC2)c1 | inconclusive: 44.7 µM [inhibitor, partial curve, poor fit] |
| Cc1c(C(=O)Nc2cccc(C(F)(F)F)c2)sc2nc3n(c(=O)c12)CCCC3 | inconclusive: 6.31 µM [inhibitor, single point] |
| CCCn1c(SCc2ccc(C(=O)OC)o2)nc2ccccc2c1=O | inconclusive: 22.4 µM [inhibitor, partial curve] |
| Cc1nc2ccccc2c(=O)n1-c1ccc(F)c(NS(=O)(=O)c2ccccc2F)c1 | inconclusive: 0.316 µM [inhibitor, full curve] |
| COc1cc(-c2cc(=O)c3c(O)cc(O)cc3o2)ccc1O | inconclusive: 0.199 µM [inhibitor, full curve] |
| CCOc1ccc(CCNC(=O)CCc2c(C)nc3c(-c4ccccc4)c(C)nn3c2C)cc1OCC | inconclusive: 0.708 µM [inhibitor, full curve] |
| Cc1nc2ccc(S(=O)(=O)CCC(=O)Nc3ccc(C)c(C)c3)cc2s1 | inconclusive: 50.1 µM [inhibitor, partial curve, poor fit] |
| CCOc1cc(C2C3=C(CC(C)(C)CC3=O)OC3=C2C(=O)CC(C)(C)C3)cc([N+](=O)[O-])c1O | inconclusive: 44.7 µM [inhibitor, partial curve, poor fit] |
| CCOc1cc(/C=C2\COc3ccccc3C2=O)cc(Br)c1OCC(=O)N(C)C | inconclusive: 4.47 µM [inhibitor, full curve, poor fit] |

Look-ups from the list:
For Potency, `CCOc1cc(C2C3=C(CC(C)(C)CC3=O)OC3=C2C(=O)CC(C)(C)C3)cc([N+](=O)[O-])c1O` is listed with inconclusive: 44.7 µM [inhibitor, partial curve, poor fit]
For Potency, `Cc1c(C(=O)Nc2cccc(C(F)(F)F)c2)sc2nc3n(c(=O)c12)CCCC3` is listed with inconclusive: 6.31 µM [inhibitor, single point]

Reference: PubChem BioAssay AID743255 (National Center for Advancing Translational Sciences (NCATS), 2014)
